Measured values from publication PMC4790320, “Purification of a Multidrug Resistance Transporter for Crystallization Studies” (Antibiotics, 2015).
No constants are given. Whether binding was seen depends on the method and setting. In cells and extracts the contact can be indirect. Here binding means that the protein was enriched with, or labelled near, the bait; the list need not be complete. Where a sequence is shown, tags or fusion partners need not be part of it.

The chains behind the UniProt entries cited, without tags or fusion partners.
UniProt P0A6F5: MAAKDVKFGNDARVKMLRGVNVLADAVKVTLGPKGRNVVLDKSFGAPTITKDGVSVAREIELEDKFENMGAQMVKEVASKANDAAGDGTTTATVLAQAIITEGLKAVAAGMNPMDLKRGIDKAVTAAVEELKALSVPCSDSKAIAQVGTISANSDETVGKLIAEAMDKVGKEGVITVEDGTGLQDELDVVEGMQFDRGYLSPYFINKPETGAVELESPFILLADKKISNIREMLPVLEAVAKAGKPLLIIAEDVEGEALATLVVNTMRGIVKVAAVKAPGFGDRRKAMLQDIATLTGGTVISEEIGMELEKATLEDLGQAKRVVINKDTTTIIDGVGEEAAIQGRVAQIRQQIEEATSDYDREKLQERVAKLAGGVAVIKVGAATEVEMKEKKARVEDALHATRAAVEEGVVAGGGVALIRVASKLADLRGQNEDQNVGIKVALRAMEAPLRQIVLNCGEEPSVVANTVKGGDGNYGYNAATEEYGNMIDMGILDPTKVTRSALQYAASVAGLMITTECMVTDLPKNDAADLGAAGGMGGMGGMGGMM

Target: T1, MdtM, hexahistidine (6-His) fusion protein (unmodified purification protocol) (E. coli) (UniProt P39386)
T1 sequence: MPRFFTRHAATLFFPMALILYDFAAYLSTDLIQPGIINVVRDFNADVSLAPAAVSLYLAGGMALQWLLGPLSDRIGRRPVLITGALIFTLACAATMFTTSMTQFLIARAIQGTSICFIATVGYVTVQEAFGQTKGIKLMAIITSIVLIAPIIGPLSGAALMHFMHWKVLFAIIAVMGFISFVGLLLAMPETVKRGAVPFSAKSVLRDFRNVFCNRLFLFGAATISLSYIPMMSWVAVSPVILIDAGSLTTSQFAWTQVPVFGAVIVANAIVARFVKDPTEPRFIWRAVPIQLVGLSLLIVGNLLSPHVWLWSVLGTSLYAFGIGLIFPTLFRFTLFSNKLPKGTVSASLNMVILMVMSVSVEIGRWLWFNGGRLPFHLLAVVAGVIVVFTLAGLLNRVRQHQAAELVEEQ
Test: affinity purification with mass spectrometry; Ni-NTA IMAC of 6-His MdtM from DDM-solubilised LMG194 membranes, unmodified protocol, 4 °C; ~58 kDa Coomassie band of the eluate cut out, trypsin digest, MALDI TOF/TOF

binding: binds
Substance: 57.3 kDa E. coli GroEL chaperonin protein (from UniProt P0A6F5 1-548)
